Some entries share one result that the patent states for a list of compounds. For at least one compound, name, drawing or mass did not settle the structure.
Target: T1, Lsp from E. coli (Escherichia coli, UniProt P00804)
T1 construct: The full-length Lsp clone from E. coli (residues 1-164); His6 with enterokinase cleavage site (pET19b) (N); made in house; host or cells: E. coli Lemo21 (DE3), pET19b vector
Assay: Lsp FRET activity assay, IC50 determination
Assay type: biochemical
Conditions: enzyme concentration at 10 nM
Method: […] […] 50 μM Lsp FRET substrate was subsequently added and the rate of substrate hydrolysis was measured by increase in fluorescence (excitation 355 nm, emission 495 nm) in 96-well plates on a PerkinElmer EnVision plate reader or Tecan Safire 2 microplate reader. Michaelis-Menten constants and […] were determined using GraphPad Prism software (GraphPad, Inc.).

The chains behind the UniProt entries cited, without tags or fusion partners. Where a name states a change or a piece, a line headed by the entry shows the natural chain unless it says otherwise.
UniProt P00804: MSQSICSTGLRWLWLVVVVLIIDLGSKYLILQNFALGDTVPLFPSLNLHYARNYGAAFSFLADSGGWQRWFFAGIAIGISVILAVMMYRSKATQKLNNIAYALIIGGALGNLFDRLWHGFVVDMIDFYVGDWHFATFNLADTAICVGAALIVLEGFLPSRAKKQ

Row | Molecule | IC50
1 | CCCCCCC1OC(=O)CNC(=O)C(C(C)O)NC(=O)C(CO)NC(=O)C(C(C)CC)NC(=O)C(CC(C)C)N(C)C(=O)C1C (centres unmarked) [Globomycin, globomycin, reference compound] | < 5 nM
2 | myxovirescin B [reference compound] | < 5 nM

From patent US20200181101A1, “BENZAMIDE INHIBITORS OF BACTERIAL LIPOPROTEIN SIGNAL PEPTIDASE” (The Scripps Research Institute, priority 2017, published 2020)
